# Reference: PubChem BioAssay AID1671190 (National Center for Advancing Translational Sciences (NCATS), 2021)
# By UniProt entry, the sequences of proteins in these tests, tags left out. Where a name states a change or a piece, a line headed by the entry shows the natural chain unless it says otherwise.
# UniProt P18054: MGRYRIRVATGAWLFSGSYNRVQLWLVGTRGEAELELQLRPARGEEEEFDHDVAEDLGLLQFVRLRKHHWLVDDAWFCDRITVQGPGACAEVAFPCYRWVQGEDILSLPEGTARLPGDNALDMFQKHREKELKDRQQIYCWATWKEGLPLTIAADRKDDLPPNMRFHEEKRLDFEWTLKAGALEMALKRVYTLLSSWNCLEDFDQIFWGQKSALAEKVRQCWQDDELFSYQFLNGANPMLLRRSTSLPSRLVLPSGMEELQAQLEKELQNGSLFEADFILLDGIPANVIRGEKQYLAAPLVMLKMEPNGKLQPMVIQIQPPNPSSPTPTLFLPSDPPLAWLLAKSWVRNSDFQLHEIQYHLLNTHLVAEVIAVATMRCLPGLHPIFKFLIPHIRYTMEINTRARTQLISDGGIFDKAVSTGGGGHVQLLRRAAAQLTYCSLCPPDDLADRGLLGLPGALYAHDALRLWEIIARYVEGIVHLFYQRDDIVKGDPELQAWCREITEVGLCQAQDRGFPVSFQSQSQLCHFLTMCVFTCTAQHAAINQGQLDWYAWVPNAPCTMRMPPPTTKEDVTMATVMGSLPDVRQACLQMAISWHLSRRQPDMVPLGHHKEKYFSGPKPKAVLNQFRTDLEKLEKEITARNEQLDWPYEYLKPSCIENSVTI
# About 6,100 (1.1%) of roughly 580,000 compounds were called active. Inconclusive results, whose numbers are uncertain, are shown with a selection of clear calls. Calls follow the shape of the dose curve; as a rule, active = well fitted inhibition curve with a large enough effect; inconclusive = small, poorly fitted or top-dose-only effect, or another doubt; inactive = no such curve, though single readings can be large or run the other way. Where the call is inconclusive, the potency comes from a doubtful curve fit.
# Target: Polyunsaturated fatty acid lipoxygenase ALOX12 (Homo sapiens) (UniProt P18054)
# Assay: Primary qHTS assay for inhibitors of human arachidonate 12S-lipoxygenase (ALOX12): Round 2
# Conditions: purified 12hLO, xylenol orange hydroperoxide absorbance; activity change, negative = inhibition: at 108 µM (top of the series) unless noted
# Procedure, shortened: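 Purified human 12hLO at 150 nM in 25 mM Hepes, 0.01% Triton X-100, pH 7.0, preincubated 15 min at room temperature with compound. Reaction started with 40 uM arachidonic acid, 30 min at room temperature. Hydroperoxide measured by Fe-xylenol orange, 573/405 nm absorbance ratio.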
# % is scaled to controls: 0 for no effect and ±100 for the full control effect; potency is read from the fitted curve at half-maximal effect.
Structure (SMILES),Potency,"activity change, negative = inhibition"
Cc1nn(CCc2n[nH]c(=S)n2C)c(C)c1Br,"inconclusive: 50.1 µM [inhibitor, partial curve, poor fit]",
O=C(COc1cccc2ccccc12)Nc1ccc(Cl)cc1C(=O)O,"inconclusive: 100 µM [inhibitor, single point]",
Cn1c(=O)[nH]c(=O)c2c1nc(SCC(=O)O)n2CCc1ccccc1,"inconclusive: 35.5 µM [inhibitor, partial curve, poor fit]",
Cc1ccc(C)c(Cn2c(=O)n(CCCC(=O)NCCc3ccc(Cl)cc3)c(=O)c3ccccc32)c1,,inconclusive: -38.5% [inhibitor]
CCCNc1c(NC(=O)Nc2ccc(OC)cc2OC)c(=O)oc2ccccc12,"inconclusive: 50.1 µM [inhibitor, partial curve, poor fit]",
O=C(Nc1cccc(-c2nc3ccccc3o2)c1)c1ccc(N2C(=O)C3C4C=CC(C4)C3C2=O)cc1 (stereo unspecified),inactive,
COc1ccc(C(C[N+](=O)[O-])c2c(C)cc3ccccn23)c(OC)c1 (stereo unspecified),"inconclusive: 79.4 µM [inhibitor, single point]",
O=C(NNS(=O)(=O)c1ccccc1)c1cccnc1,"inconclusive: 14.1 µM [inhibitor, partial curve, poor fit]",
OCCNc1nc(-c2ccccc2)nc2ccccc12,inactive,
COC(=O)CSc1nc(C)c(C)c(C)c1C(N)=O,"inconclusive: 8.91 µM [inhibitor, full curve, poor fit]",
C=CCNC(=S)N/N=C/c1cccc([N+](=O)[O-])c1,"inconclusive: 50.1 µM [inhibitor, partial curve, poor fit]",
O=c1[nH]c2cc3c(cc2cc1C(c1nnnn1C1CCCCC1)N1CCSCC1)OCCO3 (stereo unspecified),"inconclusive: 44.7 µM [inhibitor, partial curve, poor fit]",
Cc1ccc(NC(=O)c2nc[nH]c2C(=O)NCCN(CCNC(=O)c2[nH]cnc2C(=O)Nc2ccc(C)cc2)CCNC(=O)c2[nH]cnc2C(=O)Nc2ccc(C)cc2)cc1,"inconclusive: 6.31 µM [inhibitor, full curve, poor fit]",
CCOC(=O)c1cc(-c2ccc(N3CCOCC3)cc2)nn1-c1ccccc1C(=O)O,inactive,
CN(C(=O)COC(=O)c1ccccc1C(=O)N(C)c1ccccc1)c1ccccc1,"inconclusive: 3.16 µM [inhibitor, full curve, poor fit]",
CCN(Cc1ccccc1)S(=O)(=O)c1ccc(C(=O)N(CCCN(C)C)c2nc3ccc(F)cc3s2)cc1,"inconclusive: 50.1 µM [inhibitor, partial curve, poor fit]",
CCCCCCOc1ccc2c(C)c(CCC(C)C)c(=O)oc2c1,inactive,
CCCc1nc(NCC2CCCO2)c(C#N)c2c1CCCC2 (stereo unspecified),inactive,
O=C(c1cccc(F)c1)N1CCN(CC2CC3C=CC2C3)CC1 (stereo unspecified),"inconclusive: 0.794 µM [inhibitor, full curve, poor fit]",
COc1cc(-c2ccc3cc(OC)c(OC)c(OC)c3c2)cc(OC)c1OC,"inconclusive: 35.5 µM [inhibitor, partial curve]",
CCNS(=O)(=O)c1cc(-c2nn(C)c(=O)c3ccccc23)ccc1C,"inconclusive: 56.2 µM [inhibitor, single point]",
O=S1(=O)NC2(CCN(CCc3ccccc3)C2)COc2ncccc21 (stereo unspecified),"inconclusive: 112 µM [inhibitor, partial curve, poor fit]",

# Full records, quoted from the list.
# O=S1(=O)NC2(CCN(CCc3ccccc3)C2)COc2ncccc21 (stereo unspecified) is entered as Potency: inconclusive: 112 µM [inhibitor, partial curve, poor fit]
# O=C(Nc1cccc(-c2nc3ccccc3o2)c1)c1ccc(N2C(=O)C3C4C=CC(C4)C3C2=O)cc1 (stereo unspecified) is entered as Potency: inactive
# Cc1nn(CCc2n[nH]c(=S)n2C)c(C)c1Br is entered as Potency: inconclusive: 50.1 µM [inhibitor, partial curve, poor fit]
# C=CCNC(=S)N/N=C/c1cccc([N+](=O)[O-])c1 is entered as Potency: inconclusive: 50.1 µM [inhibitor, partial curve, poor fit]

# (list continues)

Structure (SMILES),Potency,"activity change, negative = inhibition"
Cc1nc2ccccn2c1C(=O)NNS(=O)(=O)c1ccc(C(C)(C)C)cc1,inactive,
CCc1ccc(NC(=O)c2ccc3c(=O)n4c(nc3c2)CCCCC4)cc1,inactive,
COc1ccc(CCNC(=O)c2ccc(Cn3c(=O)c4ccccc4n(Cc4ccc(C)cc4)c3=O)cc2)cc1OC,inactive,
COC(=O)c1ccc(Cn2c(O)c(N=NC(N)=S)c3ccccc32)o1,"inconclusive: 56.2 µM [inhibitor, partial curve, poor fit]",
N#Cc1c(N)[nH]c(C(=O)c2ccccc2)c1-c1ccc(Br)cc1,"inconclusive: 44.7 µM [inhibitor, partial curve, poor fit]",
COc1ccccc1NC(=O)CSc1nc(=O)n2cc(C)ccc2n1,inactive,
Cc1ccccc1Nc1n[nH]c(=S)s1,"inconclusive: 35.5 µM [inhibitor, partial curve, poor fit]",
Cc1ccc2nc(-c3ccco3)c(Cc3ccsc3)n2c1,"inconclusive: 25.1 µM [inhibitor, partial curve]",
Cc1ccc(C2Cn3nnc(-c4noc(COc5cccc(C)c5)n4)c3CO2)cc1 (stereo unspecified),"inconclusive: 7.94 µM [inhibitor, partial curve, poor fit]",
Cc1n[nH]c(C)c1C(N)C(=O)NCCc1cccc(C(F)(F)F)c1 (stereo unspecified),inactive,
O=C(/C=C/c1ccc(Cl)c([N+](=O)[O-])c1)c1cccnc1,active: 17.8 µM,
Nc1nc(CN2CCN(c3cccc(Cl)c3)CC2)nc(N2CCCc3ccccc32)n1,"inconclusive: 50.1 µM [inhibitor, partial curve, poor fit]",
CCN1C(=O)COc2ccc(NC(=O)c3cc(=O)c4cc(Cl)ccc4o3)cc21,"inconclusive: 56.2 µM [inhibitor, single point]",
CC(c1n[nH]c(=S)n1-c1ccc(F)cc1)N1CCCCC1 (stereo unspecified),"inconclusive: 44.7 µM [inhibitor, partial curve, poor fit]",
O=C(O)c1ccccc1C(=O)NNc1ccc(F)cc1F,"inconclusive: 44.7 µM [inhibitor, partial curve, poor fit]",
CCCCCC(=O)NNC(=S)NC(=O)c1ccc([N+](=O)[O-])cc1,inactive,
O=C(O)C1CCCCN1C(=O)c1ccc(S(=O)(=O)N2CCCCCC2)cc1 (stereo unspecified),"inconclusive: 39.8 µM [inhibitor, partial curve, poor fit]",
Cc1ccccc1-c1ccc2ncnc(NCc3cccnc3)c2c1,"inconclusive: 70.8 µM [inhibitor, partial curve, poor fit]",
COC(=O)C(C(=O)OC)=C(/C=C/C=C/N(C)C)N(C)C,"inconclusive: 44.7 µM [inhibitor, partial curve, poor fit]",
NC(=O)C1=C(Nc2ccc(F)cc2F)c2ccccc2S1(=O)=O,inactive,
CCC(C)(C)c1ccc(OCCCC[n+]2ccccc2)c(C(C)(C)CC)c1,"inconclusive: 39.8 µM [inhibitor, partial curve, poor fit]",
CCOC(=O)c1cnc2ccc(C)cc2c1Nc1cccc([N+](=O)[O-])c1,inactive,

Structure (SMILES),Potency,"activity change, negative = inhibition"
Cc1ccc(C(=O)CSc2cc(C)nc(SCC(=O)c3ccccc3)n2)cc1,inactive,
O=C1NC(=O)/C(=C/c2ccccc2Oc2ccc(Cl)cc2)S1,"inconclusive: 126 µM [inhibitor, single point]",
Cc1nc(C#N)c(N2CCN(C(=O)CN(C)C3CCCCCC3)CC2)o1,"inconclusive: 28.2 µM [inhibitor, single point]",
Cc1cc(OCC(=O)N(Cc2ccc(N(C)C)cc2)C2CCS(=O)(=O)C2)cc(C)c1Cl (stereo unspecified),inactive,
CCOC(=O)N1CCN(C(=S)NC2CCCCC2)CC1,inactive,
COc1ccc(-c2nc3cc(C)ccc3cc2CN2CCN(C)C(=O)C2)cc1OC,inactive,
N#Cc1ccccc1OCC(=O)c1ccc(NC(=O)c2ccccc2)cc1,inactive,
CCOC(=O)CC1C(=O)NCCN1C(=O)c1cccc(OC)c1 (stereo unspecified),"inconclusive: 100 µM [inhibitor, single point]",
COc1ccc(C(=O)N2CCc3nc(C(C)C)nc(-c4ccc(OC)cc4)c3C2)cc1,"inconclusive: 44.7 µM [inhibitor, partial curve]",
COc1cc(C(=O)Nc2c(C(=O)O)[nH]c3ccc(C)cc23)cc(OC)c1OC,inactive,
CC(=O)N1CCC(c2nc(-c3nnn4c3COC(c3ccc(Cl)cc3)C4)no2)CC1 (stereo unspecified),"inconclusive: 79.4 µM [inhibitor, single point]",
COc1ccc(C2CC3(CC(C)(C)NC(SC)=N3)Oc3cc(O)cc(C)c32)cc1 (stereo unspecified),"inconclusive: 50.1 µM [inhibitor, partial curve, poor fit]",
Cc1ccc(S(=O)(=O)N2CCN(C(=O)CN3C(=O)c4ccc([N+](=O)[O-])cc4C3=O)CC2)cc1C,"inconclusive: 89.1 µM [inhibitor, partial curve, poor fit]",
Cc1ccc(C(=O)N2CCC(c3nc4cc(C(F)(F)F)ccc4s3)CC2)cn1,inactive,
COc1cccc([S+](=O)([O-])N2CCC3(CC2)C(=NC2CCCC2)NC(=O)N3c2cccnc2)c1,,inactive: 7.17% [at 6.33 µM]
Cc1cc(=O)n(CC(=O)Nc2ccc(Br)cc2F)c(N2CCc3ccccc3C2)n1,"inconclusive: 28.2 µM [inhibitor, partial curve]",
CN(C)CC1(O)CCC2(CCN(C(=O)c3nccc4ccccc34)CC2)CC1,inactive,
COC(=O)C(NC(=O)c1ccco1)(Nc1nc(C)cs1)C(F)(F)F (stereo unspecified),"inconclusive: 35.5 µM [inhibitor, single point]",
O=C(/C=C/Sc1ccc(C(F)(F)F)cn1)c1ccccc1,"inconclusive: 7.08 µM [inhibitor, partial curve, poor fit]",
Cc1c(Cc2ccccc2)c(=O)oc2cc(O)cc(O)c12,"inconclusive: 79.4 µM [inhibitor, partial curve, poor fit]",
CNC(=S)N1CCN(c2nc(-c3cccc(OC)c3)cs2)CC1,inactive,
[O-]/[N+](=C\c1ccc(OC(F)F)cc1)c1ccccc1,"inconclusive: 63.1 µM [inhibitor, partial curve, poor fit]",
